Patent publication US20190262327A1, “COMBINATION OF A BACE INHIBITOR AND AN ANTIBODY OR ANTIGEN-BINDING FRAGMENT FOR THE TREATMENT OF A DISORDER ASSOCIATED WITH THE ACCUMULATION OF AMYLOID BETA” (ASTRAZENECA AB, priority 2016, published 2019)
Changes are numbered by the printed parent chain. Some results were stated once for a whole list of compounds, not compound by compound.

B1: Abet0343: optimized anti-Aβ1-42 clone from VH1:VH2:VL3 recombination library (protein)
scFv (part 1 of 2): EVQLLESGGGLVQPGGSLRLSCAASGFNFNHQVMWWVRQAPGKGLEWVSVIGKTNENIAYADSVKGRFTISRDNSKNTLYLQMNSLRAEDTAVYYCAREWMDHSRPYYYYGMDVWGQGTLVTVSS
scFv (part 2 of 2): QSVLTQPPSVSVSPGQTASITCSGHNLEDKFASWYQQKSGQSPVLVIYRDDKRPSGIPERFSASNSGHTATLTISGTQATDEADYYCSSQDTVTRVFGGGTKLTVL
modifications: left off: small tags and cut ends
notes: optimized anti-Aβ1-42 clone from VH1:VH2:VL3 recombination library
B2: Abet0369: optimized anti-Aβ1-42 clone derived from Abet0144-GL (protein)
scFv (part 1 of 2): EVQLLESGGGLVQPGGSLRLSCAASSFQISKNTMWWVRRAPGKGLEWVSVIGKDETRFNYADSVKGRFTISRDNSKNTLYLQMNSLRAEDTAVYYCAREWMDHSRPYYYYGMDVWGQGTLVTVSS
scFv (part 2 of 2): SYGLTQPPSVSVSPGQTASITCSGRNIGDSWVAWYQQKPGQSPVLVIYRDDKRPSGIPERFSASNSGHTATLTISGTQATDEADYYCSSQDTVTRVFGGGTKLTVL
modifications: left off: small tags and cut ends
notes: optimized anti-Aβ1-42 clone derived from Abet0144-GL
B3: Abet0377: optimized anti-Aβ1-42 clone from quaternary library (protein)
scFv (part 1 of 2): B1 scFv (part 1 of 2) with H31E, V33T, M34L, K53V, T54G, N55T, E56K, S63T
scFv (part 2 of 2): B1 scFv (part 2 of 2) with Q1S, S2Y, V3E, L27T, D29H, F31W, A32I, S39P, S64T
modifications: left off: small tags and cut ends
notes: optimized anti-Aβ1-42 clone from quaternary library
B4: Abet0380: optimized anti-Aβ1-42 clone derived from Abet0144-GL, non-germlined (protein)
scFv (part 1 of 2): B1 scFv (part 1 of 2) with G26M, F27G, H31Y, V33T, K43R
scFv (part 2 of 2): B1 scFv (part 2 of 2) with Q1S, S2Y, V3E, S39P
modifications: left off: small tags and cut ends
notes: optimized anti-Aβ1-42 clone derived from Abet0144-GL, non-germlined

Columns and labels:
[1] = target: T1, human Amyloid beta 1-42 peptide (Homo sapiens, UniProt P05067); experiment: Abet0144-GL HTRF epitope competition assay; format: binding; conditions: purified scFv
T1 construct: biotinylated human Amyloid beta 1-42 peptide (rpeptide, USA; cat: A1117); purchased rPeptide, USA A1117; host or cells: synthetic peptide
Protocol: Two thousand and twenty four scFv chosen at random from selection rounds 3 and 4 of the targeted mutagenesis approach described in section 1.2 were expressed in bacteria to produce unpurified periplasmic scFv. Those scFv capable of binding synthetic human amyloid beta 1-42 peptide via the same epitope as Abet0144-GL IgG1-TM were elucidated in a competition format assay, using the HTRF™ platform. Specifically, fluorescence resonance energy transfer (FRET) was measured between streptavidin cryptate (associated with biotinylated amyloid beta 1-42 peptide) and anti-human Fc XL665 (associated with Abet0144-GL IgG1-TM) in the presence of a single concentration of each unpurified periplasmic test scFv.
A ‘Total’ binding signal was determined by analysing the binding of Abet0144-GL IgG1-TM to synthetic human Amyloid beta 1-42 peptide in the absence of competitor peptide. The ‘Sample’ signals were derived from analysing the binding of Abet0144-GL IgG1-TM to synthetic human Amyloid beta 1-42 peptide in the presence of a test scFv sample. Finally, a ‘Cryptate Blank’ signal was determined by analysing the fluorescence mediated by the detection reagent cocktail alone.
Unpurified periplasmic scFv were supplied in sample buffer consisting of 50 mM MOPS, pH 7.4, 0.5 mM EDTA, and 0.5 M sucrose. For profiling, scFv samples were diluted in a 384-well V-bottom plate to 50% of the original stock concentration in assay buffer, consisting of 50 mM MOPS, pH 7.4, 0.4 M potassium fluoride, 0.1%6 fatty-acid-free bovine serum albumin and 0.1% Tween 20 (v/v), 5 μl of each newly-diluted scFv was transferred to the ‘Sample’ wells of a black, shallow, solid bottom, non-binding 384-well assay plate using a liquid handling robot. The remaining reagents (prepared in assay buffer) were added to the assay plate by multichannel pipette in the following order: 5 μl sample buffer (to ‘Total’ and ‘Cryptate Blank’ wells), 10 μl assay buffer (to ‘Cryptate Blank’ wells), 5 μl 2 nM Abet0144-GL IgG1-TM (to ‘Sample’ and ‘Total’ wells), 5 μl 5 nM biotinylated human Amyloid beta 1-42 peptide (to ‘Sample’ and ‘Total’ wells), and 5 μl detection cocktail, consisting of 6 nM streptavidin cryptate and 60 nM anti-His6-XL665 (to all wells). Assay plates were sealed and then incubated for 3 hours at room temperature in the dark, prior to measuring time-resolved fluorescence at 620 and 665 nm emission wavelengths on a fluorescence plate reader.
Data were analysed by calculating % Delta F values for each sample. % Delta F was determined according to equation 1. […]
Data were again analysed by calculating the % Delta F and % Total binding values for each sample. In addition, a % Inhibition value for each concentration of purified scFv was also calculated as described in Equation 3: […]

[2] = target: T1, human Amyloid beta 1-42 peptide; experiment: Surface Plasmon Resonance kinetic profiling of purified scFv (ProteOn); format: binding; conditions: 1:1 Langmuir fit, read-out: dissociation constant (KD)
Source text: Surface Plasmon Resonance was used to analyse the purified scFv clones that had shown significant improvement in binding affinity for human Amyloid beta 1-42 peptide over the parent sequence, Abet0144-GL, in the HTRF™ epitope competition assay (sections 1.3-1.6). Briefly, the ProteOn Protein Interaction Array System (BioRad, USA) was used to assess the kinetic parameters of the interaction between each purified scFv and synthetically produced human Amyloid beta 1-42 peptide. These experiments were performed essentially as described by Karlsson et al. (Karlsson et al., 1991).
The affinity of binding between each test scFv and human Amyloid beta 1-42 was estimated using assays in which biotinylated synthetic human Amyloid beta 1-42 peptide (rPeptide, USA; cat: Al 117) was non-covalently bound via a biotin/streptavidin interaction to a proprietary streptavidin chip (NTA 176-5021) at five different surface densities. The chip surface was regenerated between cycles by a single 60 second injection of 10 mM Glycine pH 2.0 to remove scFv bound to the peptide.
Each scFv at 100-200 nM was sequentially passed over the peptide surface for a sufficient amount of time to observe sensorgrams that could be fitted to an appropriate binding model with confidence. An irrelevant scFv blank was subtracted from the main dataset to reduce the impact of any buffer artefacts or non-specific binding effects. An appropriate binding model was then fitted to the data.

Row | Molecule | IC50 [1] [nM] | Kd [2] [nM]
1 | B1 | < 0.75 | < 0.25
2 | B2 | < 0.75 | < 0.25
3 | B3 | < 0.75 | < 0.25
4 | B4 | < 0.75 | 
